Measurements reported in PubChem BioAssay AID1053208 (Peter MacCallum Cancer Centre, 2014).
Purpose: 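Find knock-downs that sensitise mouse osteosarcoma cells to doxorubicin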 (primary screen). System: mouse osteosarcoma cells, early-passage culture from an engineered mouse model of fibroblastic bone tumour. Reagents: siRNA pool against mouse genes, 40 nM. Duration: about 120 h (48 h before drug, then 72 h with drug). Treatment: doxorubicin 100 nM for 72 h, roughly 30-40% inhibitory dose. Measurement: 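Viability read as ATP luminescence after 72 h of 100 nM doxorubicin or none, duplicate wells averaged, scaled to non-targeting siRNA, then expressed as robust z-scores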. Direction: viability z-score with doxorubicin: higher = more viable cells under doxorubicin; viability z-score without drug: higher = more viable cells with knock-down alone. Call rule: 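Called active if knock-down leaves viability unchanged without drug (z within -2 to 2) but lowers it with doxorubicin (z at or under -2)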.
This is a random part of about 17,000 reagents tested. 788 of them (4.7%) count as active. 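Calls rest on z-score classes alone; an extra cut-off of viability at most 70% of control was not applied to them.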 Not all columns of the deposit are shown.

target,combined z-score class,viability z-score with doxorubicin,viability z-score without drug,activity call
Trim52 (tripartite motif-containing 52),no change with or without drug,-1.69,-1.35,inactive
Cxcl13 (C-X-C motif chemokine ligand 13),no change with or without drug,0,0.34,inactive
Slc22a30,no change with or without drug,-0.56,-0.84,inactive
Defb14 (defensin beta 14),no change with or without drug,0,-0.17,inactive
Gucy2c (guanylate cyclase 2c),no change with or without drug,0.45,-0.17,inactive
Ipo4 (importin 4),no change with or without drug,-0.67,-1.18,inactive
"Ap2b1 (adaptor-related protein complex 2, beta 1 subunit)",low cell count with doxorubicin only,-2.36,-1.52,active
Rarres1 (retinoic acid receptor responder (tazarotene induced) 1),no change with or without drug,1.12,0.34,inactive
Mmadhc,no change with or without drug,-1.35,0.34,inactive
Cdh22 (cadherin 22),no change with or without drug,-1.57,-1.18,inactive
Kcnj15,no change with or without drug,0.56,-0.17,inactive
Depdc7 (DEP domain containing 7),no change with or without drug,0,-0.51,inactive
"Mal2 (mal, T cell differentiation protein 2)",no change with or without drug,-1.57,-0.84,inactive
"Adarb2 (adenosine deaminase, RNA-specific, B2)",no change with or without drug,0,1.01,inactive
"Haus4 (HAUS augmin-like complex, subunit 4)",no change with or without drug,0.67,0.84,inactive
Or10ag56 (olfactory receptor family 10 subfamily AG member 56),high cell count with and without drug,3.15,2.36,inactive
A930006J02Rik (retired record),no change with or without drug,1.24,1.85,inactive
"Ssr4 (signal sequence receptor, delta)",no change with or without drug,-1.01,-1.01,inactive
"Naa20 (N(alpha)-acetyltransferase 20, NatB catalytic subunit)",no change with or without drug,-1.46,-1.52,inactive
Sbds (SBDS ribosome maturation factor),high cell count without drug only,1.01,2.19,inactive
Epo (erythropoietin),no change with or without drug,0,1.18,inactive
Gucy2e (guanylate cyclase 2e),no change with or without drug,1.12,1.52,inactive
Or8s8 (olfactory receptor family 8 subfamily S member 8),no change with or without drug,-1.12,-1.52,inactive
Scg2 (secretogranin II),high cell count with and without drug,2.02,2.87,inactive
Chchd7 (coiled-coil-helix-coiled-coil-helix domain containing 7),no change with or without drug,-0.67,-0.17,inactive
"Nfe2l3 (nuclear factor, erythroid derived 2, like 3)",no change with or without drug,1.57,0.67,inactive
Tpcn2 (two pore segment channel 2),no change with or without drug,-0.45,-1.18,inactive

A few values from the list:
For “viability z-score without drug”, Depdc7 (DEP domain containing 7) has -0.51
Value for Gucy2c (guanylate cyclase 2c) in “viability z-score without drug”: -0.17
Under “activity call”, Kcnj15 has inactive
Value of Ap2b1 (adaptor-related protein complex 2, beta 1 subunit) under “activity call”: active
For “viability z-score with doxorubicin”, Scg2 (secretogranin II) is entered as 2.02

Additional entries follow.
target,combined z-score class,viability z-score with doxorubicin,viability z-score without drug,activity call
Or5aq1b (olfactory receptor family 5 subfamily AQ member 1B),no change with or without drug,0.22,0.51,inactive
Or8g54 (olfactory receptor family 8 subfamily G member 54),no change with or without drug,-1.46,-1.35,inactive
Rpl32 (ribosomal protein L32),low cell count with and without drug,-6.3,-7.93,inactive
Stmn1 (stathmin 1),no change with or without drug,-1.12,-0.51,inactive
Msn (moesin),no change with or without drug,0.45,-1.18,inactive
Slco2b1,no change with or without drug,0.56,0.17,inactive
Aoc1l2 (amine oxidase copper containing 1-like 2),no change with or without drug,1.12,0.84,inactive
Armc10 (armadillo repeat containing 10),no change with or without drug,0.67,-0.51,inactive
Clca1 (chloride channel accessory 1),low cell count with doxorubicin only,-2.47,-1.52,active
Srek1 (splicing regulatory glutamine/lysine-rich protein 1),no change with or without drug,-0.56,-1.52,inactive
Prss8 (serine protease 8 (prostasin)),no change with or without drug,0.22,1.52,inactive
Nsf (N-ethylmaleimide sensitive fusion protein),no change with or without drug,1.12,1.69,inactive
Zfp276 (zinc finger protein (C2H2 type) 276),no change with or without drug,-1.69,0.17,inactive
Kcnrg (potassium channel regulator),no change with or without drug,0,0.17,inactive
Pheta2 (PH domain containing endocytic trafficking adaptor 2),no change with or without drug,0,0.17,inactive
"Rab2a (RAB2A, member RAS oncogene family)",no change with or without drug,0.11,0,inactive
Tmem222 (transmembrane protein 222),no change with or without drug,-1.35,1.18,inactive
Prss59 (serine protease 59),no change with or without drug,-0.9,1.85,inactive
Klk1b27 (kallikrein 1-related peptidase b27),no change with or without drug,0.9,1.18,inactive
Glyat (glycine-N-acyltransferase),no change with or without drug,1.12,-0.84,inactive
"Psmd4 (proteasome (prosome, macropain) 26S subunit, non-ATPase, 4)",no change with or without drug,0,-0.51,inactive
Cxxc5 (CXXC finger 5),no change with or without drug,-0.22,-1.18,inactive
Bmal2 (basic helix-loop-helix ARNT like 2),no change with or without drug,0.45,0.67,inactive
